Here are results for one sequence from patent US5733728.

Data set [1] concerns beta-ARB (Mr 38,000 protein in ribosomal salt wash). Nature of the data set: binding assay. The following applies: UV-crosslinking, RSW, 22 C, heparin and yeast tRNA; self-competed in FIG. 3A; protein in an extract; label: 32P-UTP uniform, 5'-capped.
Data set [2] has as its system T1, p37AUF1 (His6-AUF1 fusion, hnRNP D) (Homo sapiens).
T1 sequence (looked up, limits assumed): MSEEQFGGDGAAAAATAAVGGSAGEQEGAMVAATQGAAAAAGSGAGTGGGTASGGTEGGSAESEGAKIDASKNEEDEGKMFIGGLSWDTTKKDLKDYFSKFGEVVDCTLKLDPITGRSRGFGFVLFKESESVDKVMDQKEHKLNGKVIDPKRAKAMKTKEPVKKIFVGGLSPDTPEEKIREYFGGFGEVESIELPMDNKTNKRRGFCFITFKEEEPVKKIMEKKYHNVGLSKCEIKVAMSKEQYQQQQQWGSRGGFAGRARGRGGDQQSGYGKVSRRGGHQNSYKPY
The data set is described as follows: binding assay. To be noted: UV-crosslinking; lanes with 10- and 100-fold unlabeled beta1-AR RNA competitor; purified recombinant protein; protein details: N-terminal His6 (pTrcHisB, E. coli TOP10); label: 32P-UTP uniform, 5'-capped.

The exact form of at least one protein or probe is not confirmed. For some assays here: At least one result comes from cells or an extract, where the contact may be indirect. For some assays here: Tags and fusion partners may be left off the protein sequences shown.

Regarding “AGGGCCCGGCGCGGGGCGCGGACCCGGGCACGGCCCCAGGGGAACGAGGAGACGGACAAGACCGAAGCAGGGAACCGAAGCCCACAACCCGCGAACACCGAGGCAAAGAGAAAAGCCACGGACCGGCACAAAAAGGAAAGGGGAAGGGAGGGAGAGGGCGCGAGCCGGCCCCCCCGGGGCCGGCCCGGGGCGGGAGCACAGACCCCCACCAGGGGGCACACCCGAGAGGACCGGAGGGAAGAGGGGGGAGGGGAAGGGAGAAGCAAGGGAGGCAAAAACGACACGCCGACCCACCCCCCGGGAACAGGAACACACACCGACCAGAGAGAGGAGAAGACAGGCAAGACAACCGCCCAGAGAAACAAACAAGAAGACGCGAGAAAGCAAAGAGAAAGGAGGAGGCAAAAAAAAAAAAACACGCAAGAAAGAAGCCCGGAACAAGCCCCACCGCCCGGAGGGCAAACCCGCGCCCCCGCGCGCCGGGGGCAGGCGAGGGACACCCACACGGCAGCACAGCAGAAGAAAGACGAAAAACAGCAAGACAAAAGGGAAGGACCAGGCGCAGAGCCCCCGGACAGGACCGCAAGAAGACAGGACAAAAAGAGAGCAGAGAGAGAGAAACAGCAGAACGCACAGGGAAAAAACAAAAAAGACAAGCAGCGACAGAG [human beta1-AR 3'UTR RNA]”, the binding result in data set [1] and in data set [2] was “binds” in each case.
